{
  "source": "patent US12220466B2",
  "about": "“Pharmaceutical formulation” (Cutting Edge Technology, LLC, priority 2016, dated 2025)",
  "origin": "cited, not measured here",
  "tested_on": "flora in the subgingival plaques of periodontal pockets",
  "settings": "systemically administered; patients not responding to two rounds of instrumentation; cited from earlier work",
  "note": "At least one compound was matched to its structure with a doubt left.",
  "data": [
    {"smiles": "CN(C)[C@@H]1C(O)=C(C(N)=O)C(=O)[C@@]2(O)C(O)=C3C(=O)c4c(O)cccc4[C@@](C)(O)[C@H]3C[C@@H]12", "note": "[tetracycline]", "values": [
      {"measurement": "subgingival flora", "result": "significant flora shift and reduction"}
    ]}
  ]
}
